Source: the supplement of paper PMC12889115
The other results are listed elsewhere or left out. Values are raw readings; no control value is given beside them.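 In the initial screen, polymyxin B was used at a concentration that permeabilizes Salmonella's outer membrane but not its inner membrane. Maximum growth was set by DMSO wells with or without polymyxin B. Since plates varied, data were ranked per plate, and compounds giving the lowest OD600 advanced as hits.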

Test system: Salmonella enterica serovar Typhimurium SL1344
Assay: bacterial growth OD600 after 18 h with compound and polymyxin B; higher = more bacterial growth (less inhibition)
Details: 50 µM, Mueller-Hinton broth

| SMILES | bacterial growth OD600 (polymyxin B 0.75 µg/mL) | bacterial growth OD600 (polymyxin B 1 µg/mL) |
| --- | --- | --- |
| CC(C)CC1(C2CCN(C(=O)c3ccc(F)c(Cl)c3)CC2)NC(=O)N(Cc2cccs2)C1=O (stereo not given) | 0.129 | – |
| COC(=O)c1ccccc1C(=O)N1CCC(CCC(=O)NCc2cccnc2)CC1 | – | 0.799 |
| O=C(C[n+]1cc([O-])on1)N1CCc2c([nH]c3ccccc23)C1C1CCCCC1 (stereo not given) | – | 1.01 |
| O=C1CCC(CCC(=O)N2CCN(Cc3cccc(F)c3)C(=O)C2)(Cc2ccc(Cl)cc2)N1 (stereo not given) | 0.91 | – |
| Cc1c(C(C)NCc2ccccc2OC(F)F)cnn1-c1ccccc1 (stereo not given) | 0.829 | – |
| CC(C)Cn1c(CN(C)Cc2ccccc2)cnc1S(=O)(=O)Cc1ccccc1 | – | 0.552 |
| COc1cccc(-c2ccc(NC(=O)C3CCCN(Cc4cnc(N)nc4)C3)cc2)c1 (stereo not given) | 0.005 | – |
| COc1cccc(CN2CCOc3ccc(C(O)CCc4ccccc4)cc3C2)c1 (stereo not given) | 0.007 | – |
| O=C(c1ccc(Oc2ccccc2)cc1)C1CCCN(C(=O)c2cnsn2)C1 (stereo not given) | – | 0.018 |
| CCn1nc(C)cc1C(=O)NCc1cccnc1Oc1ccccc1C | – | 0.914 |
| COc1cccc(CN2C(=O)CCC2CCNCCOc2ccc(F)cc2)c1 (stereo not given) | 0.901 | – |
| O=C(c1ccc(N2CCC(NCCc3cccc(F)c3)CC2)cc1)N1CCCC(O)C1 (stereo not given) | 0.923 | – |
| CN(C(=O)c1coc(COc2cccc(F)c2)n1)C1CCOC1 (stereo not given) | – | 1 |
| COc1ccc(OC)c(S(=O)(=O)N(Cc2cccc(OCCN3CCOCC3)c2)Cc2ccccn2)c1 | 0.812 | – |
| Cc1ccc(OCCN(C)C(=O)C2CC23CCN(Cc2ccc(N(C)C)cc2)CC3)cc1 (stereo not given) | 0.647 | – |
| CN(Cc1cccc2ccccc12)C(=O)C1CCC(=O)N(CCc2cccc(F)c2)C1 (stereo not given) | – | 0.491 |
| CCOCCNC(=O)C1(N2CCN(CC)CC2)Cc2ccccc2C1 | 0.892 | – |
| Cc1ncc(CN2CCC(C3CCN(c4ncccn4)CC3)C2)cn1 (stereo not given) | 0.988 | – |
| O=C(NCCc1ccccn1)C1CC12CCN(C(=O)/C=C/c1ccc(F)cc1)CC2 (stereo not given) | 0.844 | – |
| O=C(Nc1ccc(Oc2cccnc2)cc1)C1CCCCN1Cc1ccccc1 (stereo not given) | – | 0.876 |

Another view of four compounds above:
SMILES | bacterial growth OD600 (polymyxin B 0.75 µg/mL) | bacterial growth OD600 (polymyxin B 1 µg/mL)
O=C1CCC(CCC(=O)N2CCN(Cc3cccc(F)c3)C(=O)C2)(Cc2ccc(Cl)cc2)N1 (stereo not given) | 0.91 | –
Cc1c(C(C)NCc2ccccc2OC(F)F)cnn1-c1ccccc1 (stereo not given) | 0.829 | –
CC(C)Cn1c(CN(C)Cc2ccccc2)cnc1S(=O)(=O)Cc1ccccc1 | – | 0.552
COc1cccc(-c2ccc(NC(=O)C3CCCN(Cc4cnc(N)nc4)C3)cc2)c1 (stereo not given) | 0.005 | –
